The values that follow come from paper PMC3525568, “The Natively Disordered Loop of Bcl-2 Undergoes Phosphorylation-Dependent Conformational Change and Interacts with Pin1” (PLoS ONE, 2012).

This data set in a line: NMR structure determination of peptides. To be noted: 20 mM phosphate pH 6.5, 25°C; for NMR structure of peptide (conformation): TOCSY/ROESY, XPLOR-NIH, 10 lowest energy structures.

Regarding “PLQpTPAAPGA [pT74, phosphorylated T74 Bcl-2 loop peptide]”, the “NMR structure of peptide (conformation)” value was “became curved”.

For “QPGHpTPHPAA [pT56, phosphorylated T56 Bcl-2 loop peptide]”, the “NMR structure of peptide (conformation)” value is “became curved”.

For “GPALSPVPPV [S87, synthetic peptide derived from the Bcl-2 loop covering S87]”, the “secondary structure by chemical shift index (Hα)” value is given as “no secondary structure present” and the “NMR structure of peptide (conformation)” value is given as “not a completely extended structure”.
